From paper PMC10552892, “Ebselen oxide and derivatives are new allosteric HER2 inhibitors for HER2‐positive cancers” (Molecular Oncology, 2023)
No constants are given. Whether binding was seen depends on the method and setting. A result given as binding can be weak or reduced; the word gives no strength.

Target: T1, biotinylated peptide derived from HER2 cytosolic juxtamembrane region (human)
T1 sequence (peptide, biotin (position not stated)): ILIKRRQQKIRKYTMRRL

**Q.** How did the binding turn out when “N-terminal FERM domain of ezrin, GST fusion (domain or fragment)” was run?
**A.** binds
